Laboratory results published in patent US10577428B2, “Anti-factor XI monoclonal antibodies and methods of use thereof” (Oregon Health & Science University, priority 2007, dated 2020).

Tested on: baboons (Papio anubis)
Assay: Local and systemic TAT, βTG and D-dimer during thrombus formation (4 mm grafts)
Format: in vivo, baboon (Papio anubis)
Conditions: at 60 min
Experimental: A novel local sampling method was used to assess the local production of thrombogenic mediators by sampling blood that superfused propagating experimental thrombi. […] All blood samples were collected into 1/10th volume 3.8% citrate anticoagulant. Systemic samples (1 ml each) were collected before initiation of thrombosis as well as 30 and 60 min into each study. A total of 6 local blood samples were drawn from the peripheral blood IBL at a rate of 100 μl/min over 10 min intervals out of a 0.64 mm port which was located 10 mm distal to the growing thrombus (FIG. 1A). […] Infusion and sampling were regulated by syringe pumps (Harvard Apparatus). Local sampling was performed only with the 4 mm i.d. devices in this study.
Blood cell counts were determined using a micro-60 automated cell counter (Horiba-ABX Diagnostics). Blood samples were divided into two aliquots and processed according to specific test requirements. All samples were placed on ice for 10 min, centrifuged at 4° C. for 10 min at 12,900 g, and the plasmas were stored at −80° C. For β-thromboglobulin (βTG) determinations, the samples were supplemented with 4 μg/ml prostaglandin E1 (PGE1), 4.3 mg/ml acetylsalicylic acid (ASA), and 50 μg/ml PPACK. […]

B1: aXIMab: neutralizing murine IgG/kappa anti-human FXI monoclonal antibody from hybridoma 1A6; binds A3 domain; VH SEQ ID NO:3, VL SEQ ID NO:5 (antibody, listed as Mus musculus, V domains shown)
VH: QVTLKESGPGILKPSQTLSLTCSFSGFSLSTSGMGVGWIRQPSGKGLEWLAHIWWDDDKYYNPSLKSQLTISKDTSRNQVFLKITSVDAADTATYYCARKRSSVVAHYYAMDYWGQGTSVTVSS
VL: DIVLTQSPASLAVSLGQRATISCKASQSVDYDGDSYLNWYQQKPGQPPKLLIYAASNLESGIPARFSGSGSGTDFTLNIHPVEEEDAATYYCQQSNGDPWTFGGGTKLEIK
- Local D-dimer levels (n=6): 2.2 ± 0.2 µg/mL
- Systemic D-dimer levels (control 2.4±0.3): 2.3 ± 0.2 µg/mL
